{
  "sequences": {"note": "Sequences of proteins named here, by UniProt entry; tags and fusion partners are left off. Residues count along the entry.", "UniProt Q53WJ1, residues 139-498": "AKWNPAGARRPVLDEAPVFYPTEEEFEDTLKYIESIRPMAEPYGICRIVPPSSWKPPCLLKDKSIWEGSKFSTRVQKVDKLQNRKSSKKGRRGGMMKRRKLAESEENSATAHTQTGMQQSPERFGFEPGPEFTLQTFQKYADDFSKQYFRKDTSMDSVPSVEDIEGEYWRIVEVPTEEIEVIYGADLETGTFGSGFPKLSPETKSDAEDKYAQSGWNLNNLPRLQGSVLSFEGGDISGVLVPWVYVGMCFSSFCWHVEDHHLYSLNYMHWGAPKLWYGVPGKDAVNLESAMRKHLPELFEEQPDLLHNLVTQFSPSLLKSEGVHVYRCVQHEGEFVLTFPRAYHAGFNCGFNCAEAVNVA"},
  "source": "paper PMC3554631",
  "about": "“Structural Basis of a Histone H3 Lysine 4 Demethylase Required for Stem Elongation in Rice” (PLoS Genetics, 2013)",
  "biological_target": "c-JMJ703, catalytic core domain of JMJ703 (amino acids 139 to 498) (rice) (UniProt Q53WJ1)",
  "assay": "SEC; c-JMJ703 (20 mg/mL) on Superdex 75 10/300 GL in 20 mM HEPES pH 7.5, 150 mM NaCl; retention volume 11.5 mL; both purified",
  "note": "No constants are given. Whether binding was seen depends on the method and setting.",
  "data": [
    {"substance": "c-JMJ703, catalytic core domain of JMJ703 (amino acids 139 to 498) (from UniProt Q53WJ1 139-498) (domain or fragment)", "values": [
      {"measurement": "binding", "result": "no binding (tested: 20 mg/mL)"}
    ]}
  ]
}
